In PubChem BioAssay AID540256 (National Center for Advancing Translational Sciences (NCATS), 2011):
Out of some 300,000 compounds screened, about 3,700 (1.2%) were called active. The inconclusive results got no clear call from the source; some entries with a clear call stand among them for comparison. Calls come from the whole dose curve; tested in HEK293 cells. Potencies of inconclusive entries are doubtful fits and often do not repeat.

Test: qHTS for Inhibitors of binding or entry into cells for Lassa Virus; note: nearly all actives have a fitted effect of over 50% in size
Conditions: Lassa virus pseudotype entry inhibition, cell reporter; activity change, negative = inhibition: at 37.9 µM (top of the series) unless noted
% is set by controls: 0 for no effect and ±100 for the full control effect; potency is the fitted concentration of half-maximal effect.

SMILES	Potency	activity change, negative = inhibition
O=C(CCl)NCc1cc(-c2ccc(Cl)cc2)no1	inconclusive: 35.5 µM [inhibitor, single point]	
O=C(CCC1CCCC1)NCc1ccccn1		inactive: 13.5%
COc1ccccc1OCCn1cc(/C=N/n2cnnc2)c2ccccc21	inconclusive: 1.26 µM [activator, single point]	
CCOC(=O)c1c(NC(=O)CSc2nc(-c3ccccc3)cc(C(F)(F)F)n2)sc(C)c1C	inconclusive: 22.4 µM [activator, single point]	
Cc1csc(NC(=O)CSc2nnc(-c3ccccc3)o2)n1	inconclusive: 1 µM [activator, single point]	
O=C(/C=C/c1ccccc1)Oc1ccc(C(=S)N2CCOCC2)cc1		inactive: 25.1%
COc1ccc(-c2nc(N=Nc3ccc(O)cc3)n[nH]2)cc1		inactive: -2.26%
Cc1ccc(S(=O)(=O)N(CC(=O)N2CCCCCC2)c2ccccc2)cc1	active: 6.51 µM	
O=C(NCCc1c[nH]c2ccccc12)Nc1ccccc1	inconclusive: 5.17 µM [inhibitor, partial curve, poor fit]	
CCOc1ccc(CCNC(=O)Cn2nnc(-c3ccc(C(F)(F)F)cc3)n2)cc1OCC		inactive: -1.27% [at 46.1 µM]
CC(=O)Nc1nnc(SCc2cc(=O)c3cccc(Cl)c3[nH]2)s1	inconclusive: 0.562 µM [activator, full curve, poor fit]	
Cc1oc2ccc(O)cc2c1C(=O)c1ccccc1		inactive: 5.98% [at 46.1 µM]
O=C(COc1ccccc1[N+](=O)[O-])Nc1cccc(S(=O)(=O)N2CCCC2)c1	inconclusive: 12.6 µM [inhibitor, partial curve, poor fit]	
O=C(COC(=O)Cc1ccsc1)Nc1ccc(Cl)c(S(=O)(=O)N2CCOCC2)c1		inactive: 0.425%
Cc1ccccc1-n1c(=O)[nH]c(=O)c2c(N)c(C(=O)c3ccc(Cl)cc3)sc21	inconclusive: 6.31 µM [inhibitor, single point]	
Cc1ccsc1C(=O)N/N=C/c1ccc([N+](=O)[O-])cc1	inconclusive: 0.316 µM [activator, partial curve, poor fit]	
Clc1ccc2nc3c(c(-c4ccccc4)c2c1)CNCC3	inconclusive: 35.5 µM [activator, partial curve, poor fit]	
c1coc(CN(Cc2ccco2)c2ncnc3c2oc2ccccc23)c1	inconclusive: 11.6 µM [inhibitor, single point]	
COc1ccc(NC(=O)C2CC(=O)N/C(=N/N=C/c3ccccc3)S2)cc1 (centres undefined)		inconclusive: 2.86% [activator] [at 46.1 µM]
Cc1ccc(C)n1-n1c(C)nc2scc(-c3cccs3)c2c1=O	inconclusive: 11.2 µM [inhibitor, partial curve, poor fit]	
c1ccc2sc(NN=C3CCCCCC3)nc2c1	inconclusive: 11.2 µM [inhibitor, single point]	
O=C(NCc1ccccc1Cl)c1ccc(Nc2nc3ccccc3n3nnnc23)cc1		inactive: 27.1% [at 46.1 µM]

SMILES	Potency	activity change, negative = inhibition
Cc1ccc(OCc2nc(-c3ccc(C(=O)N4CCN(c5ccccc5)CC4)cc3)oc2C)cc1		inactive: 18.9% [at 46.1 µM]
CCc1ccc(C2c3c(-c4cc(C)ccc4O)n[nH]c3C(=O)N2Cc2cccnc2)cc1 (centres undefined)	inconclusive: 6.31 µM [inhibitor, partial curve, poor fit]	
CCC/C(O)=N\S(=O)(=O)c1ccc(N=NN(C)C)cc1	inconclusive: 1.16 µM [inhibitor, single point]	
CCNc1nc(SCCOc2ccc(C)cc2)nc(N(C)C)n1		inactive: -20.4%
O=C(Nc1ncccn1)C12CC3CC(CC(C3)C1)C2		inactive: 22.6%
Cc1cccc(-n2nnc3c(=O)n(Cc4ccccn4)cnc32)c1	inconclusive: 6.31 µM [inhibitor, single point]	
c1ccc(-c2ccc(-c3nc(-c4ccccn4)no3)cc2)cc1	inconclusive: 0.517 µM [inhibitor, full curve, poor fit]	
CN(c1ccc(C(=O)N2CCCCC2)cc1)S(=O)(=O)c1ccccc1	inconclusive: 29.1 µM [inhibitor, partial curve, poor fit]	
CCCCOc1ccc(/C(O)=C2/C(=O)C(=O)N(Cc3cccnc3)C2c2ccncc2)c(C)c1 (centres undefined)		inactive: 28.5%
O=C(Nc1cc(S(=O)(=O)N2CCOCC2)ccc1N1CCOCC1)c1cn2ccccc2n1	inconclusive: 4.47 µM [activator, full curve, poor fit]	
O=C(Nc1ccc(Cl)cc1)C(c1ccccc1)N(CCO)CCO (centres undefined)		inactive: 3.04%
CCCCC(=O)Oc1c(S(=O)(=O)c2ccccc2)c(C)nn1C(C)(C)C	inconclusive: 35.5 µM [inhibitor, single point]	
Cc1cnc(C(=O)Nc2cc(S(=O)(=O)N3CCOCC3)ccc2N2CCN(C)CC2)cn1	inconclusive: 35.5 µM [activator, single point]	
CCOc1ccc(-c2cc(N3C(=O)Nc4ccccc4N3O)on2)cc1	inconclusive: 18.3 µM [inhibitor, single point]	
Cc1ccc(OCCn2nnc3ccccc32)cc1C	inconclusive: 3.55 µM [inhibitor, single point]	
CCOC(=O)c1ccc(NC(=S)N(CCCN(CC)CC)Cc2ccco2)cc1	inconclusive: 0.224 µM [activator, full curve, poor fit]	
COc1ccccc1CNS(=O)(=O)c1ccc(F)c(C(=O)Nc2cc(Cl)ccc2OC)c1		inactive: 8.27% [at 46.1 µM]
COc1ccccc1N1CCN(C(=S)Nc2ccc(S(=O)(=O)N3CCOCC3)cc2)CC1	inconclusive: 35.5 µM [inhibitor, single point]	
FC(F)(F)c1cccc(CNC2CCN(Cc3ccccc3)CC2)c1	inconclusive: 11.2 µM [inhibitor, partial curve]	
O=C1CC(N2CCN(c3ccc(F)cc3)CC2)C(=O)N1Cc1cccs1 (centres undefined)		inactive: 2.25%
O=C(c1ccc(Cl)cc1)N1CCN(CCOc2ccccc2)CC1		inactive: -13.5% [at 46.1 µM]
CC(=O)NC12CC3CC(C1)CC(C(=O)Oc1ccc(N(C)S(=O)(=O)c4cc(C)ccc4C)cc1)(C3)C2	inconclusive: 35.5 µM [inhibitor, single point]	

Of the compounds above, 3 contain a CF3 group.
SMILES	Potency	activity change, negative = inhibition
CCOC(=O)c1c(NC(=O)CSc2nc(-c3ccccc3)cc(C(F)(F)F)n2)sc(C)c1C	inconclusive: 22.4 µM [activator, single point]	
CCOc1ccc(CCNC(=O)Cn2nnc(-c3ccc(C(F)(F)F)cc3)n2)cc1OCC		inactive: -1.27% [at 46.1 µM]
FC(F)(F)c1cccc(CNC2CCN(Cc3ccccc3)CC2)c1	inconclusive: 11.2 µM [inhibitor, partial curve]	
